{
  "source": "the supplement of paper PMC8728848",
  "binders": {"B1": {"name": "SspB A3vp1 (Streptococcus gordonii), Q54186 (protein)", "chain": "MTNEADYQAKLAAYQTELARVQKANADAKATYEKAVEDNKAKNAAIKAENEEIKQRNAVAKTDYEAKLAKYEADLAKYKKEFAAYTAALAEAESKKKQDGYLSEPRSQSLNFKSEPNAIRTIDSSVHQYGQQELDALVKSWGISPTNPDRKKSRAYSYFNAINSNNTYAKLVLEKDKPVDVTYTGLKNSSFNGKKISKVVYTYTLKETGFNDGTKMTMFASSDPTVTAWYNDYFTSTNINVKVKFYDEEGQLMNLTGGLVNFSSLNRGNGSGAIDKDAIESVRNFNGRYIPISGSSIKIHENNSAYADSSNAEKSLGARWNTSEWDTTSSPNNWYGAIVGEITQSEISFNMASSKSGNIWFAFNSNINAIGVPTKPVAPTAPTQPMYETEKPLEPAPVAPSYENEPTPPVKTPDQPEPSKPAAALEHHHHHH"}},
  "test_in_all_cases": "glycan array binding signal (z-score within array); higher = stronger binding",
  "conditions_in_all_cases": "glycan notation: IUPAC condensed, linker removed",
  "key": {"[1]": {"target": "Gal(b1-4)GlcNAc(b1-3)Gal(b1-4)GlcNAc(b1-3)Gal(b1-4)GlcNAc(b1-2)Man(a1-3)[Gal(b1-4)GlcNAc(b1-3)Gal(b1-4)GlcNAc(b1-3)Gal(b1-4)GlcNAc(b1-2)Man(a1-6)]Man(b1-4)GlcNAc(b1-4)GlcNAc", "method_in_brief": "(§1)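 Columns mapping to the same glycan were averaged after glycan names were converted to IUPAC-condensed notation. The data come from 3228 arrays in the Consortium for Functional Glycomics database, limited to those with an available protein sequence. Binding is reported as a within-array Z-score averaged across arrays of one protein sequence and across linkers.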"}, "[2]": {"target": "Gal(b1-4)GlcNAc(b1-3)Gal(b1-4)GlcNAc(b1-3)Gal(b1-4)GlcNAc(b1-2)Man(a1-3)[Gal(b1-4)GlcNAc(b1-3)Gal(b1-4)GlcNAc(b1-3)Gal(b1-4)GlcNAc(b1-2)Man(a1-6)]Man(b1-4)GlcNAc(b1-4)[Fuc(a1-6)]GlcNAc", "method_in_brief": "as §1"}, "[3]": {"target": "Gal(b1-4)GlcNAc(b1-3)Gal(b1-4)GlcNAc(b1-3)Gal(b1-4)GlcNAc(b1-2)[Gal(b1-4)GlcNAc(b1-3)Gal(b1-4)GlcNAc(b1-3)Gal(b1-4)GlcNAc(b1-6)]Man(a1-6)[Gal(b1-4)GlcNAc(b1-3)Gal(b1-4)GlcNAc(b1-3)Gal(b1-4)GlcNAc(b1-2)Man(a1-3)]Man(b1-4)GlcNAc(b1-4)[Fuc(a1-6)]GlcNAc", "method_in_brief": "as §1"}, "[4]": {"target": "Gal(b1-4)GlcNAc(b1-3)Gal(b1-4)GlcNAc(b1-3)Gal(b1-4)GlcNAc(b1-3)Gal(b1-4)GlcNAc(b1-2)Man(a1-3)[Gal(b1-4)GlcNAc(b1-3)Gal(b1-4)GlcNAc(b1-3)Gal(b1-4)GlcNAc(b1-3)Gal(b1-4)GlcNAc(b1-2)Man(a1-6)]Man(b1-4)GlcNAc(b1-4)GlcNAc", "method_in_brief": "as §1"}, "[5]": {"target": "Gal(b1-4)GlcNAc(b1-3)Gal(b1-4)GlcNAc(b1-3)Gal(b1-4)GlcNAc(b1-3)Gal(b1-4)GlcNAc(b1-2)Man(a1-3)[Gal(b1-4)GlcNAc(b1-3)Gal(b1-4)GlcNAc(b1-3)Gal(b1-4)GlcNAc(b1-3)Gal(b1-4)GlcNAc(b1-2)Man(a1-6)]Man(b1-4)GlcNAc(b1-4)[Fuc(a1-6)]GlcNAc", "method_in_brief": "as §1"}, "[6]": {"target": "Gal(b1-4)GlcNAc(b1-3)Gal(b1-4)GlcNAc(b1-3)Gal(b1-4)GlcNAc(b1-3)Gal(b1-4)GlcNAc(b1-2)[Gal(b1-4)GlcNAc(b1-3)Gal(b1-4)GlcNAc(b1-3)Gal(b1-4)GlcNAc(b1-3)Gal(b1-4)GlcNAc(b1-6)]Man(a1-6)[Gal(b1-4)GlcNAc(b1-3)Gal(b1-4)GlcNAc(b1-3)Gal(b1-4)GlcNAc(b1-3)Gal(b1-4)GlcNAc(b1-2)Man(a1-3)]Man(b1-4)GlcNAc(b1-4)[Fuc(a1-6)]GlcNAc", "method_in_brief": "as §1"}, "[7]": {"target": "Gal(b1-4)GlcNAc(b1-3)Gal(b1-4)GlcNAc(b1-3)Gal(b1-4)GlcNAc(b1-3)Gal(b1-4)GlcNAc(b1-3)Gal(b1-4)GlcNAc(b1-2)Man(a1-3)[Gal(b1-4)GlcNAc(b1-3)Gal(b1-4)GlcNAc(b1-3)Gal(b1-4)GlcNAc(b1-3)Gal(b1-4)GlcNAc(b1-3)Gal(b1-4)GlcNAc(b1-2)Man(a1-6)]Man(b1-4)GlcNAc(b1-4)GlcNAc", "method_in_brief": "as §1"}, "[8]": {"target": "Gal(b1-4)GlcNAc(b1-3)Gal(b1-4)GlcNAc(b1-3)Gal(b1-4)GlcNAc(b1-3)Gal(b1-4)GlcNAc(b1-3)Gal(b1-4)GlcNAc(b1-2)Man(a1-3)[Gal(b1-4)GlcNAc(b1-3)Gal(b1-4)GlcNAc(b1-3)Gal(b1-4)GlcNAc(b1-3)Gal(b1-4)GlcNAc(b1-3)Gal(b1-4)GlcNAc(b1-2)Man(a1-6)]Man(b1-4)GlcNAc(b1-4)[Fuc(a1-6)]GlcNAc", "method_in_brief": "as §1"}, "[9]": {"target": "Gal(b1-4)GlcNAc(b1-3)Gal(b1-4)GlcNAc(b1-3)Gal(b1-4)GlcNAc(b1-3)Gal(b1-4)GlcNAc(b1-3)Gal(b1-4)GlcNAc(b1-2)[Gal(b1-4)GlcNAc(b1-3)Gal(b1-4)GlcNAc(b1-3)Gal(b1-4)GlcNAc(b1-3)Gal(b1-4)GlcNAc(b1-3)Gal(b1-4)GlcNAc(b1-6)]Man(a1-6)[Gal(b1-4)GlcNAc(b1-3)Gal(b1-4)GlcNAc(b1-3)Gal(b1-4)GlcNAc(b1-3)Gal(b1-4)GlcNAc(b1-3)Gal(b1-4)GlcNAc(b1-2)Man(a1-3)]Man(b1-4)GlcNAc(b1-4)[Fuc(a1-6)]GlcNAc", "method_in_brief": "as §1"}, "[10]": {"target": "Gal(b1-4)GlcNAc(b1-3)Gal(b1-4)GlcNAc(b1-3)Gal(b1-4)GlcNAc(b1-3)Gal(b1-4)GlcNAc(b1-3)Gal(b1-4)GlcNAc(b1-3)Gal(b1-4)GlcNAc(b1-2)Man(a1-3)[Gal(b1-4)GlcNAc(b1-3)Gal(b1-4)GlcNAc(b1-3)Gal(b1-4)GlcNAc(b1-3)Gal(b1-4)GlcNAc(b1-3)Gal(b1-4)GlcNAc(b1-3)Gal(b1-4)GlcNAc(b1-2)Man(a1-6)]Man(b1-4)GlcNAc(b1-4)GlcNAc", "method_in_brief": "as §1"}, "[11]": {"target": "Gal(b1-4)GlcNAc(b1-3)Gal(b1-4)GlcNAc(b1-3)GalNAc", "method_in_brief": "as §1"}, "[12]": {"target": "Gal(b1-4)GlcNAc(b1-3)Gal(b1-4)GlcNAc(b1-3)[Gal(b1-4)GlcNAc(b1-3)Gal(b1-4)GlcNAc(b1-6)]GalNAc", "method_in_brief": "as §1"}, "[13]": {"target": "Gal(b1-4)GlcNAc(b1-3)Gal(b1-4)GlcNAc(b1-6)[Gal(b1-3)]GalNAc", "method_in_brief": "as §1"}, "[14]": {"target": "Gal(b1-4)GlcNAc(b1-3)Gal(b1-4)[Fuc(a1-3)]GlcNAc(b1-3)Gal(b1-4)[Fuc(a1-3)]GlcNAc", "method_in_brief": "as §1"}, "[15]": {"target": "Gal(b1-4)GlcNAc(b1-3)GalNAc", "method_in_brief": "as §1"}, "[16]": {"target": "Gal(b1-4)GlcNAc(b1-3)[Fuc(a1-3)GlcNAc(b1-6)]Gal(b1-4)Glc", "method_in_brief": "as §1"}, "[17]": {"target": "Gal(b1-4)GlcNAc(b1-3)[Gal(b1-4)GlcNAc(b1-6)]Gal(b1-4)GlcNAc", "method_in_brief": "as §1"}, "[18]": {"target": "Gal(b1-4)GlcNAc(b1-3)[GlcNAc(b1-6)]Gal(b1-4)GlcNAc", "method_in_brief": "as §1"}, "[19]": {"target": "Gal(b1-4)GlcNAc(b1-6)Gal(b1-4)GlcNAc", "method_in_brief": "as §1"}},
  "note": "The list shows a part of the results.",
  "data": [
    {"binder": "B1", "values": [
      {"measurement": "glycan array binding signal (z-score)", "setting": "[1]", "result": 2.06},
      {"measurement": "glycan array binding signal (z-score)", "setting": "[2]", "result": 3.73},
      {"measurement": "glycan array binding signal (z-score)", "setting": "[3]", "result": 2.45},
      {"measurement": "glycan array binding signal (z-score)", "setting": "[4]", "result": 3.61},
      {"measurement": "glycan array binding signal (z-score)", "setting": "[5]", "result": 2.13},
      {"measurement": "glycan array binding signal (z-score)", "setting": "[6]", "result": 2.31},
      {"measurement": "glycan array binding signal (z-score)", "setting": "[7]", "result": 3.36},
      {"measurement": "glycan array binding signal (z-score)", "setting": "[8]", "result": 3.38},
      {"measurement": "glycan array binding signal (z-score)", "setting": "[9]", "result": 2},
      {"measurement": "glycan array binding signal (z-score)", "setting": "[10]", "result": 1.69},
      {"measurement": "glycan array binding signal (z-score)", "setting": "[11]", "result": 0.825},
      {"measurement": "glycan array binding signal (z-score)", "setting": "[12]", "result": 1.46},
      {"measurement": "glycan array binding signal (z-score)", "setting": "[13]", "result": 2.1},
      {"measurement": "glycan array binding signal (z-score)", "setting": "[14]", "result": 0.156},
      {"measurement": "glycan array binding signal (z-score)", "setting": "[15]", "result": -0.052},
      {"measurement": "glycan array binding signal (z-score)", "setting": "[16]", "result": -0.392},
      {"measurement": "glycan array binding signal (z-score)", "setting": "[17]", "result": -0.309},
      {"measurement": "glycan array binding signal (z-score)", "setting": "[18]", "result": -0.081},
      {"measurement": "glycan array binding signal (z-score)", "setting": "[19]", "result": -0.324}
    ]}
  ]
}
